Source: publication doi:10.1101/2025.11.23.689992
Results are given in words; binding and its absence hold for the method and conditions named. Binding seen in cells or lysates may run through a third protein. Some binding calls cover weakened binding; strength is not graded here.

The chains behind the UniProt entries cited, without tags or fusion partners.
UniProt P46937: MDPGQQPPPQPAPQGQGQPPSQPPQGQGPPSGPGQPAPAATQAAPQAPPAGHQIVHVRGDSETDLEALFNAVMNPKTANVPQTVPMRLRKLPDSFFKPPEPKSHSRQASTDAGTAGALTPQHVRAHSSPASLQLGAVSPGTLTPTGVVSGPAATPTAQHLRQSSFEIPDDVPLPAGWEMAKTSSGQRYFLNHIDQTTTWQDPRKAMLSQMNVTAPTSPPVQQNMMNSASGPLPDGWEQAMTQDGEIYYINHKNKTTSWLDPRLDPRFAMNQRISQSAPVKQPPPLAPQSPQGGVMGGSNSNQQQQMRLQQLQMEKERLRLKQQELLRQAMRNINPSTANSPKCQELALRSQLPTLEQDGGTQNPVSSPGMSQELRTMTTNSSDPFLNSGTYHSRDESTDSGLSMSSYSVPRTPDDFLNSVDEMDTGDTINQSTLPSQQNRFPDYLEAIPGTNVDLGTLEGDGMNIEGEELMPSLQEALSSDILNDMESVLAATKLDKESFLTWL
UniProt Q9UKN5: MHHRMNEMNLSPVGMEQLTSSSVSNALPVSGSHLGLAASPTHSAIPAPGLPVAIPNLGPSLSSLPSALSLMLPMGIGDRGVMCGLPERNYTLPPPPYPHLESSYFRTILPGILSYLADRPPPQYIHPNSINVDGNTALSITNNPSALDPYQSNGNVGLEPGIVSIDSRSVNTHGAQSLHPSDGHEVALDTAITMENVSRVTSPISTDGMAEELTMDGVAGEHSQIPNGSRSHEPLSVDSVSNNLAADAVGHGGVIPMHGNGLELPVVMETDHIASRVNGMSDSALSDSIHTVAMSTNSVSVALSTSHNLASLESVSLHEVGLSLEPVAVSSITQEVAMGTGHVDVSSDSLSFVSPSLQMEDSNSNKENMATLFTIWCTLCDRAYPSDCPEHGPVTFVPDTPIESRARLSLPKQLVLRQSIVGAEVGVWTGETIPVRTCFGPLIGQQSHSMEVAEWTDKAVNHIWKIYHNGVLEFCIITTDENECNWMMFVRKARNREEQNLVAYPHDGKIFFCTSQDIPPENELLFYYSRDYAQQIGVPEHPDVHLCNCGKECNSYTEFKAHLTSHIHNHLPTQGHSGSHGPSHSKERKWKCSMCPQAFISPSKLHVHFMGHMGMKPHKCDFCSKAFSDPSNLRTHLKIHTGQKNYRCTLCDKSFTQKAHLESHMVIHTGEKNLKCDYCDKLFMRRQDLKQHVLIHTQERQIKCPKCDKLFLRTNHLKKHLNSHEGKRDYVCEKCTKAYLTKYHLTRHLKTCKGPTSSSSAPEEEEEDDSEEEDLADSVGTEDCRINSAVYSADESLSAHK

Experiments:
[1] = molecular target: YAP1-TEAD1-enhancer (YTE) complex (UniProt P46937); test: pull-down
[2] = molecular target: Full-length YAP1 with C-terminal FLAG tag (UniProt P46937); test: pull-down

In the case of PRDM4 (from UniProt Q9UKN5 1-801), the binding [1] is reported as “binds” and the binding [2] is reported as “binds”.
